Source: US20260256859A1, “COMPOSITION FOR PREVENTING, AMELIORATING, OR TREATING TUBERCULOSIS COMPRISING EXTRACT OF PHILADELPHUS SP. PLANT AS ACTIVE INGREDIENT” (priority 2023, published 2026)
At least one compound was matched to its structure with a doubt left.

System: Mycobacterium tuberculosis H37Rv
Test: Intracellular M. tuberculosis CFU count in infected bone marrow-derived macrophages after treatment with extract or anti-tuberculosis agent
Type: cell-based
Settings: C57BL/6 mouse BMDM, H37Rv MOI=1, anti-tuberculosis agent 100 ng/mL, 48 hours; FIG. 2

## CO[C@H]1/C=C/O[C@@]2(C)Oc3c(C)c(O)c4c(O)c(c(/C=N/N5CCN(C)CC5)c(O)c4c3C2=O)NC(=O)/C(C)=C\C=C\[C@H](C)[C@H](O)[C@@H](C)[C@@H](O)[C@@H](C)[C@H](OC(C)=O)[C@@H]1C [rifampicin]
  number of intracellular M. tuberculosis in mouse bone marrow-derived macrophages (CFU) vs infection control (Rv): statistically significantly reduced
